Reference: the supplement of paper PMC10849652
The list shows a part of the results.

Amino acid sequences for entries named in this document (tags omitted). A change or cut given only in a name is not applied to a line headed by its entry.
UniProt Q86UY8: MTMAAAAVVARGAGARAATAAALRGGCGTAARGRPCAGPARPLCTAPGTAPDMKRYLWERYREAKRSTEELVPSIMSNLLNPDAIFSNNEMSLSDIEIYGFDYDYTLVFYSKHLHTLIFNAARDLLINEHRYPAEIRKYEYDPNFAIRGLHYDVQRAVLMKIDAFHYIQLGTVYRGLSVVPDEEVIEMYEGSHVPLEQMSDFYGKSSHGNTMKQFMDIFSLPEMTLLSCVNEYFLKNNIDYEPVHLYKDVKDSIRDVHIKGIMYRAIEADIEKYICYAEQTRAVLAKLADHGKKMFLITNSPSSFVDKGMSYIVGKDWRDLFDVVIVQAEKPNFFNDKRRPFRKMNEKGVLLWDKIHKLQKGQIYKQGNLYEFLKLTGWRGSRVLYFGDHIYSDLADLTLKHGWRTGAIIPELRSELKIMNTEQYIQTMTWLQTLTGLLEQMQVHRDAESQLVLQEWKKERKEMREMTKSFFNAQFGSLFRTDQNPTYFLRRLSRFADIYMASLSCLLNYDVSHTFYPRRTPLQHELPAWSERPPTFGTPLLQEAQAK
UniProt A8MXV4: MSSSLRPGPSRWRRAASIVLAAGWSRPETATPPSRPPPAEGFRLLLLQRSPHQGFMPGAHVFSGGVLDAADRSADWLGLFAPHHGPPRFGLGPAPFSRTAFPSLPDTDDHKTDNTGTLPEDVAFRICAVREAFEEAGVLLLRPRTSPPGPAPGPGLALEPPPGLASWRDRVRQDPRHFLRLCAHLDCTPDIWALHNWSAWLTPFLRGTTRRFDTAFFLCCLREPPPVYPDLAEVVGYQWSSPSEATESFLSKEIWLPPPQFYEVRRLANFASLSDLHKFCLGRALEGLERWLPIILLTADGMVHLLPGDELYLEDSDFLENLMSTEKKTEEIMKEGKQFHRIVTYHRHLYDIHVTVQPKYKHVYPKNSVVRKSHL
UniProt Q9BW91: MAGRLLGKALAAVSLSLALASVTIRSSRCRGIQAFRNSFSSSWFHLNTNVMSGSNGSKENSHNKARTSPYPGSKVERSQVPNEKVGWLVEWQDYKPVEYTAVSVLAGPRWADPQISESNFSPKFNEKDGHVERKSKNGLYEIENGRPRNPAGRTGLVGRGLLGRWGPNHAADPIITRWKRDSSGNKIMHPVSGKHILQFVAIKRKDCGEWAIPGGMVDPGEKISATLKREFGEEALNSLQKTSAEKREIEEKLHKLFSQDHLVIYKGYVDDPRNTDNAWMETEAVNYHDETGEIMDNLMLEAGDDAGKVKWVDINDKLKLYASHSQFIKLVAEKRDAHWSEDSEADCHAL
UniProt O75694: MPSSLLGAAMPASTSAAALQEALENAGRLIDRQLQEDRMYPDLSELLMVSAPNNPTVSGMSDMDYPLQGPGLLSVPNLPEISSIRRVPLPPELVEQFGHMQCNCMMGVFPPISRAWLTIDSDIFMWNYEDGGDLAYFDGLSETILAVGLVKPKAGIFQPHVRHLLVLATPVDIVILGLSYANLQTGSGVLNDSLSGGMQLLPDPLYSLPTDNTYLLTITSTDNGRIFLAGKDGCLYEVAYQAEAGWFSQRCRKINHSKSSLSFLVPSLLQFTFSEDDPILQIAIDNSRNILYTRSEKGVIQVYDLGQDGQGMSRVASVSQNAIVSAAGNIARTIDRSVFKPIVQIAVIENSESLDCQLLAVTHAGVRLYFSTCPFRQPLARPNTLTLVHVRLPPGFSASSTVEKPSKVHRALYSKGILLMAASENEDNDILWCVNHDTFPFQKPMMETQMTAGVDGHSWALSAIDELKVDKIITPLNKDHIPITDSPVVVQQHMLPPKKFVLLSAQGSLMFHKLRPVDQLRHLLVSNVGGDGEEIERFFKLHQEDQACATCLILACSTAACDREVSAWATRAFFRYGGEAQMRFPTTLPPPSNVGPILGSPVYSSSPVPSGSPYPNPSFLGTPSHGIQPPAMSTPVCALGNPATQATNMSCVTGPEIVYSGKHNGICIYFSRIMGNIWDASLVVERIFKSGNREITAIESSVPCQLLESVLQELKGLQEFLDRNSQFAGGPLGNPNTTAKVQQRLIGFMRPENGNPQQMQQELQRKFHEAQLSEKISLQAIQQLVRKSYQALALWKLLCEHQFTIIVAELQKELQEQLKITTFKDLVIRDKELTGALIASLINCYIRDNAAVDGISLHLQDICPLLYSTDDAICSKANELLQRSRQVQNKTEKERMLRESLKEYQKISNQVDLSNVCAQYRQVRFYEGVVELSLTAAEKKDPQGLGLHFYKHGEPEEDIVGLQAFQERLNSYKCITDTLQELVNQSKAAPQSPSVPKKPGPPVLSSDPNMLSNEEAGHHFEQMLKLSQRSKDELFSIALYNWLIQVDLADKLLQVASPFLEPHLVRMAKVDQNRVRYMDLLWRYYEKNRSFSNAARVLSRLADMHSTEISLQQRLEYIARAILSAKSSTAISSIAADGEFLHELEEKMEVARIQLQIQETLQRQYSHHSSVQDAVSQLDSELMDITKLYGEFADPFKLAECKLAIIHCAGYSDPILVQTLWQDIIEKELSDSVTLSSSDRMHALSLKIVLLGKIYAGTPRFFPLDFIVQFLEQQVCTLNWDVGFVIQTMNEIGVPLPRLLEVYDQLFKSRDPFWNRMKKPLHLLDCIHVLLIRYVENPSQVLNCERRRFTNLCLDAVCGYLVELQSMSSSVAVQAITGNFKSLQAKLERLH
UniProt P00480: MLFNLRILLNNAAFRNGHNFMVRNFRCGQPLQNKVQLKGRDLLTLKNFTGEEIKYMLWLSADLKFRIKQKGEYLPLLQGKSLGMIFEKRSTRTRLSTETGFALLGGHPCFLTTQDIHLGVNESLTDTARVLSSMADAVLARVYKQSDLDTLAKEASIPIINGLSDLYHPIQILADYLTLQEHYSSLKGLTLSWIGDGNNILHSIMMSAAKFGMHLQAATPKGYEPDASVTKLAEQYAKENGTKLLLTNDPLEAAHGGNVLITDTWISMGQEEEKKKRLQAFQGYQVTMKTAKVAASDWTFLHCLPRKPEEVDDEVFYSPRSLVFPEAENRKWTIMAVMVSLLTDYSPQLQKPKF
UniProt O43809, whole entry, looked up: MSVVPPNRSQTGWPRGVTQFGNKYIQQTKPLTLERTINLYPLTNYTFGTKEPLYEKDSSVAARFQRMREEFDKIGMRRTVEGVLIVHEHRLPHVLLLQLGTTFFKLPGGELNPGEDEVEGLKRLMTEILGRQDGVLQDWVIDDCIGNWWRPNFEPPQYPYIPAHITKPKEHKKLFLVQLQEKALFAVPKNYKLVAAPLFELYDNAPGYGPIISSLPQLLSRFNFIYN
UniProt Q8TCD5: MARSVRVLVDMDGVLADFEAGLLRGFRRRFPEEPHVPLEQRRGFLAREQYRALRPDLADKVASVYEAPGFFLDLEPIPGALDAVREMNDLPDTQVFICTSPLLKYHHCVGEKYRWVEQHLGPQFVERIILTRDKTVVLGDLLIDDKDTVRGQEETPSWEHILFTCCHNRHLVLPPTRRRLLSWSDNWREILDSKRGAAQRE
UniProt Q9NRP0: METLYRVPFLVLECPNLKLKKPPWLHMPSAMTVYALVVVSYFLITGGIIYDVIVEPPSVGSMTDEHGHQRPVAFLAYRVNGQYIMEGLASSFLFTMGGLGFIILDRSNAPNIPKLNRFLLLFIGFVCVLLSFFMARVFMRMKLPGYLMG
UniProt Q8NFH4: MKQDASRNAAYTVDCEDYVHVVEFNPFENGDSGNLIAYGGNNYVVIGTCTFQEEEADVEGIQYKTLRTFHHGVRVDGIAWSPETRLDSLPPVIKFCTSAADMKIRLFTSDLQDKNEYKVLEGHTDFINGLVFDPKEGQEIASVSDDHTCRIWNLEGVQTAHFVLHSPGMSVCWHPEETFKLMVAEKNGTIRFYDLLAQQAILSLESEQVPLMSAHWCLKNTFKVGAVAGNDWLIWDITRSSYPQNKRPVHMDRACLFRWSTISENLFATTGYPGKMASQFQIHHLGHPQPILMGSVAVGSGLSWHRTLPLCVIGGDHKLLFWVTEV
UniProt Q8NFH3: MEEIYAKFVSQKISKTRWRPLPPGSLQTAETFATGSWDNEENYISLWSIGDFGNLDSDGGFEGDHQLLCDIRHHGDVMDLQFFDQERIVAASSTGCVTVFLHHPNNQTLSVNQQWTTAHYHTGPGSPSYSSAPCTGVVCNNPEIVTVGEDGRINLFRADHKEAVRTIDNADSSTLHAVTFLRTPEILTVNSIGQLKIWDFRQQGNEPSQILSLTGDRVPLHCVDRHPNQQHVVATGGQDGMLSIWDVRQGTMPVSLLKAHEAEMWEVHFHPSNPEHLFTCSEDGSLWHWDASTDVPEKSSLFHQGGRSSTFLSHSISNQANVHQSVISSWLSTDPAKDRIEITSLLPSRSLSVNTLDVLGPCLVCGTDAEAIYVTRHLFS
UniProt P50583: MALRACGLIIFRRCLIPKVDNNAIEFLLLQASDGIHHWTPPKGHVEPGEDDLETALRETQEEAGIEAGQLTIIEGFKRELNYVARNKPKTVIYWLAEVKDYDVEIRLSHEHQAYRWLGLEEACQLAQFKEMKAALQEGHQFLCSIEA
UniProt P22059, whole entry, looked up: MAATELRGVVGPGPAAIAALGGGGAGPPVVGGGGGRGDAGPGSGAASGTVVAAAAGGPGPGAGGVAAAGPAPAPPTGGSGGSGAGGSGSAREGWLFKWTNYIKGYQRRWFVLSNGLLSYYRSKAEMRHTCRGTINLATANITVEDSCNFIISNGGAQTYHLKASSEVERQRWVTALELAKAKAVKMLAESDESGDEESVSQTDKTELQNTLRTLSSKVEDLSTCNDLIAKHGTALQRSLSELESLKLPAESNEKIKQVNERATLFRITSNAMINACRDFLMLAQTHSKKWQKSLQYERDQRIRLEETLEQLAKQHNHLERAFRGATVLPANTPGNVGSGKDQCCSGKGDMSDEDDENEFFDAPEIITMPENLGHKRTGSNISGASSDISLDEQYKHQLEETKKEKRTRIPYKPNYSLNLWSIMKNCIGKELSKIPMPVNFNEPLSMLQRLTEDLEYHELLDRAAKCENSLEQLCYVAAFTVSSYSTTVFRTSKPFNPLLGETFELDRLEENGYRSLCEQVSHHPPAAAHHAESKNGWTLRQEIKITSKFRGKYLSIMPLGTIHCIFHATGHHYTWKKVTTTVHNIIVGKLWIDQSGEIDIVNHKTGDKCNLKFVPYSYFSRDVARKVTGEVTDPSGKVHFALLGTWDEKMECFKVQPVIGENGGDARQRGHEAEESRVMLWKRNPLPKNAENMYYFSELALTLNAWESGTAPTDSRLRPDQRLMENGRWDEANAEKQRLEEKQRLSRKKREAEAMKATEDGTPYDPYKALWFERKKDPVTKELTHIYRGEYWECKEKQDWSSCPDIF
UniProt Q9Y266: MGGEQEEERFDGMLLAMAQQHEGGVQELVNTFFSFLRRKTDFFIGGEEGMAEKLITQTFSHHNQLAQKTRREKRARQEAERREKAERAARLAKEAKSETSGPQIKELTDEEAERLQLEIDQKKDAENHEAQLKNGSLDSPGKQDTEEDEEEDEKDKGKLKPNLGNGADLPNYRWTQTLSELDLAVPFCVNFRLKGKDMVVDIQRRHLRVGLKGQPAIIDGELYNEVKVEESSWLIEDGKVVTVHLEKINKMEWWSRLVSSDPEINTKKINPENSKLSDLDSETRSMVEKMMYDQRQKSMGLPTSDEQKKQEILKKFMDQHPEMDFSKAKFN
UniProt Q9NV35: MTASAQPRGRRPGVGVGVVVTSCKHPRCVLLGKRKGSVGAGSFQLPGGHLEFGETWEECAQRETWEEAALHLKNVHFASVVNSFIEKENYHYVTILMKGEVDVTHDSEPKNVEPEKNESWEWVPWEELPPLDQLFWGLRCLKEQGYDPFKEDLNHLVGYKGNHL
UniProt O95747, whole entry, looked up: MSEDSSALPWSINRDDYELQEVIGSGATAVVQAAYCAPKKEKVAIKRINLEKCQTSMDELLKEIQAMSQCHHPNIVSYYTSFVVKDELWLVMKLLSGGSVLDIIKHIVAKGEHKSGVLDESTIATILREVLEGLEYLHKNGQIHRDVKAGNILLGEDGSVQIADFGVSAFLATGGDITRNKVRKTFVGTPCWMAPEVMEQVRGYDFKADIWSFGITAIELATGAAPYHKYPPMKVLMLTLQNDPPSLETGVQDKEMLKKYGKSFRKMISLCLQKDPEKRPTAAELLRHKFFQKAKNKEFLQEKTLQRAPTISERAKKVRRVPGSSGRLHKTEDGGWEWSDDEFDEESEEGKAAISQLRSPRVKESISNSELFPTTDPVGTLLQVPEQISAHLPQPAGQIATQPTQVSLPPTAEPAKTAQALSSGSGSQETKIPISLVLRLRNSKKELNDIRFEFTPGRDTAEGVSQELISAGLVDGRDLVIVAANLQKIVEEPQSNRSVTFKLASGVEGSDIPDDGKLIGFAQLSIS
UniProt Q96HP4: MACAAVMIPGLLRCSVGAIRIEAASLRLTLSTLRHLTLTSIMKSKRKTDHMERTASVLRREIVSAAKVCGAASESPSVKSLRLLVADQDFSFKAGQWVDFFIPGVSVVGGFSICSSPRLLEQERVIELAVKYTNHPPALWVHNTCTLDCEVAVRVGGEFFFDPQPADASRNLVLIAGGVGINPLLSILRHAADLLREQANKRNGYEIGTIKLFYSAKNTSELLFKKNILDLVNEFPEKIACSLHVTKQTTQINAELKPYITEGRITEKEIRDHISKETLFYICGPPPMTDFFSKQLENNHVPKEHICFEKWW

How the values were obtained:
Experiment in all cases: log2 fold change, soluble protein after heating vs DMSO (PISA); higher = thermal stabilisation; K562 cells, 10 uM, 30 min; active = over 0.2 and 3.5 SD of the protein, either way, in both replicates (recomputed)
[1] = compound: C1=CC=C(C=C1)[C@H](COC2=CC3=C(C=C2)NC(=O)N3)NC(=O)C4=CC=CN(C4=O)CC5=CC(=C(C=C5)F)F
Summary of the method: (§1)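 K562 cells (2×10^6 cells/mL) were treated with 10 μM compound for 30 min, and aliquots were heated for 3 min over 48°C-58°C. Pooled aliquots were extracted in PBS with 0.5% NP-40 at 4°C, and the supernatant after 21,000xg for 90 min was measured by TMTpro 16plex LC-MS/MS with channel sums equalised. Reported thermal stability, relative to control samples and from duplicates, is a log2 fold change.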

[2] = compound: CC1=C(SC2=C1C(=N[C@H](C3=NN=C(N32)C)CC(=O)N)C4=CC=C(C=C4)Cl)C
Summary of the method: as §1

[3] = compound: CC1=C2C(=CC=C1)N=C(N(C2=O)C3=CC=CC=C3C)CN4C=NC5=C(N=CN=C54)N
Summary of the method: as §1

[4] = compound: Cc1sc2c(c1C)C(c1ccc(Cl)cc1)=N[C@@H](CC(=O)OC(C)(C)C)c1nnc(C)n1-2
Summary of the method: as §1

[5] = compound: c1ccc([C@@H]2C[C@H]2NC2CCNCC2)cc1
Summary of the method: as §1

Measured: log2 fold change

NUP107 (UniProt P57740)
inactive: [1] -0.02 | [2] -0.043 | [3] 0.051 | [4] 0.052 | [5] 0.025

OPA3 (UniProt Q9H6K4)
inactive: [1] -0.044 | [2] -0.045 | [3] 0.083 | [4] 0.057 | [5] 0.067

OTUD4 (UniProt Q01804)
inactive: [1] 0.033 | [2] -0.034 | [3] -0.05 | [4] 0.111 | [5] 0.011

NT5DC3 (UniProt Q86UY8)
inactive: [1] -0.011 | [2] 0.042 | [3] 0.055 | [4] 0.019 | [5] 0.018

OS9 (UniProt Q13438)
inactive: [1] 0.062 | [2] -0.01 | [3] 0.017 | [4] 0.005 | [5] -0.001

Quoted at random: two entries already listed, in no set order.
NT5DC3 (UniProt Q86UY8)
inactive: [1] -0.011 | [2] 0.042 | [3] 0.055 | [4] 0.019 | [5] 0.018

OTUD4 (UniProt Q01804)
inactive: [1] 0.033 | [2] -0.034 | [3] -0.05 | [4] 0.111 | [5] 0.011

Carrying on:

NUDT1 (UniProt P36639)
inactive: [1] 0.556 | [2] -0.043 | [3] 0.048 | [4] -0.137 | [5] 0.038

NUP153 (UniProt P49790)
inactive: [1] 0.025 | [2] 0.02 | [3] -0.035 | [4] 0.046 | [5] 0.048

OAT (UniProt P04181)
inactive: [1] -0.019 | [2] 0.083 | [3] 0.05 | [4] -0.024 | [5] -0.045

NSUN7 (UniProt Q8NE18)
inactive: [1] -0.03 | [2] 0.068 | [3] 0.112 | [4] 0.181 | [5] -0.03

NUDT19 (UniProt A8MXV4)
inactive: [1] 0.017 | [2] 0.005 | [3] 0.102 | [4] -0.017 | [5] -0.026

NUCKS1 (UniProt Q9H1E3)
inactive: [1] 0.044 | [2] -0.053 | [3] 0.032 | [4] -0.029 | [5] -0.007

P4HB (UniProt P07237)
inactive: [1] -0.003 | [2] -0.009 | [3] -0.015 | [4] 0.011 | [5] 0.038

NUP54 (UniProt Q7Z3B4)
inactive: [1] -0.135 | [2] 0.035 | [3] 0.031 | [4] -0.027 | [5] -0.028

NUDT9 (UniProt Q9BW91)
inactive: [1] 0.028 | [2] 0.004 | [3] 0.089 | [4] 0.041 | [5] -0.002

ODR4 (UniProt Q5SWX8)
inactive: [1] -0.029 | [2] 0.04 | [3] 0.055 | [4] -0.005 | [5] -0.041

OGFOD2 (UniProt Q6N063)
inactive: [1] 0.124 | [2] 0.097 | [3] 0.024 | [4] 0.091 | [5] 0.053

NUP155 (UniProt O75694)
inactive: [1] -0.088 | [2] 0.114 | [3] 0.024 | [4] -0.024 | [5] -0.043

OTC (UniProt P00480)
inactive: [1] -0.06 | [2] 0.09 | [3] 0.24 | [4] 0.126 | [5] 0.069

NTPCR (UniProt Q9BSD7)
inactive: [1] -0.059 | [2] 0.042 | [3] 0.034 | [4] 0.002 | [5] -0.054

NUP210 (UniProt Q8TEM1)
inactive: [1] -0.083 | [2] 0.059 | [3] 0.037 | [4] -0.013 | [5] -0.028

NUDT5 (UniProt Q9UKK9)
inactive: [1] 0.018 | [2] 0.008 | [3] -0.065 | [4] 0.011 | [5] 0.043

OCIAD1 (UniProt D6RDK6)
inactive: [1] -0.177 | [2] 0.01 | [3] 0.045 | [4] 0.087 | [5] 0.055

NUDT21 (UniProt O43809)
inactive: [1] 0.013 | [2] 0.021 | [3] 0.011 | [4] -0.01 | [5] 0.001

NT5DC2 isoform 2 (UniProt Q9H857)
inactive: [1] 0.03 | [2] 0.079 | [3] 0.05 | [4] 0.008 | [5] 0.017

OGDH (UniProt Q02218)
inactive: [1] -0.033 | [2] -0.005 | [3] -0.029 | [4] -0.027 | [5] -0.026

NT5C (UniProt Q8TCD5)
inactive: [1] 0.021 | [2] 0.02 | [3] 0.017 | [4] -0.012 | [5] 0.017

OXCT1 (UniProt P55809)
inactive: [1] -0.001 | [2] 0.03 | [3] 0.025 | [4] 0.01 | [5] -0.031

NUP50 (UniProt Q9UKX7)
inactive: [1] 0.027 | [2] 0.035 | [3] -0.038 | [4] 0.044 | [5] 0.002

OSTC (UniProt Q9NRP0)
inactive: [1] -0.031 | [2] 0.048 | [3] 0.063 | [4] -0.213 | [5] 0.048

NUP37 (UniProt Q8NFH4)
inactive: [1] -0.033 | [2] 0.049 | [3] 0.022 | [4] -0.02 | [5] 0.052

NSRP1 (UniProt Q9H0G5)
inactive: [1] 0.048 | [2] -0.049 | [3] -0.047 | [4] 0.028 | [5] 0.073

NSUN2 (UniProt Q08J23)
inactive: [1] -0.019 | [2] 0.023 | [3] 0.003 | [4] 0 | [5] 0.003

OXR1 (UniProt Q8N573)
inactive: [1] -0.021 | [2] 0.026 | [3] 0.039 | [4] -0.041 | [5] -0.069

NUDCD2 (UniProt Q8WVJ2)
inactive: [1] -0.037 | [2] 0.113 | [3] 0.099 | [4] 0.017 | [5] 0.037

ORC3 isoform 2 (UniProt Q9UBD5)
inactive: [1] -0.098 | [2] 0.032 | [3] 0.107 | [4] 0.013 | [5] -0.079

NUP43 (UniProt Q8NFH3)
inactive: [1] 0.033 | [2] -0.012 | [3] 0.011 | [4] -0.032 | [5] -0.003

NUDT2 (UniProt P50583)
inactive: [1] -0.065 | [2] 0.053 | [3] -0.072 | [4] 0 | [5] -0.021

OSBP (UniProt P22059)
inactive: [1] 0.015 | [2] 0.084 | [3] 0.076 | [4] -0.002 | [5] 0.031

NSMAF (UniProt Q92636)
inactive: [1] 0.002 | [2] 0.109 | [3] 0.104 | [4] 0.117 | [5] 0.027

NUDC (UniProt Q9Y266)
inactive: [1] -0.033 | [2] 0.071 | [3] 0.011 | [4] 0.003 | [5] -0.041

NUBP1 (UniProt P53384)
inactive: [1] -0.053 | [2] 0.08 | [3] 0.078 | [4] -0.021 | [5] -0.055

NSMCE3 (UniProt Q96MG7)
inactive: [1] 0.046 | [2] -0.014 | [3] 0.09 | [4] 0.072 | [5] -0.029

NUP58 (UniProt Q9BVL2)
inactive: [1] 0.017 | [2] 0.036 | [3] 0.015 | [4] -0.012 | [5] 0.025

NUDT15 (UniProt Q9NV35)
inactive: [1] 0.029 | [2] 0.07 | [3] -0.005 | [4] -0.024 | [5] -0.024

NUDCD1 (UniProt Q96RS6)
inactive: [1] -0.033 | [2] 0.026 | [3] 0.086 | [4] -0.016 | [5] -0.036

NUP35 (UniProt Q8NFH5)
inactive: [1] -0.094 | [2] -0.008 | [3] 0.012 | [4] 0.044 | [5] 0.051

P4HA2 (UniProt O15460)
inactive: [1] 0.006 | [2] -0.033 | [3] -0.014 | [4] -0.007 | [5] -0.043

OMA1 (UniProt Q96E52)
inactive: [1] -0.012 | [2] -0.051 | [3] 0.028 | [4] -0.055 | [5] -0.015

NT5C2 (UniProt P49902)
inactive: [1] 0.007 | [2] 0.049 | [3] 0.033 | [4] -0.014 | [5] 0.007

OXSR1 (UniProt O95747)
inactive: [1] -0.039 | [2] 0.048 | [3] 0.096 | [4] -0.003 | [5] -0.03

NUP85 (UniProt Q9BW27)
inactive: [1] -0.009 | [2] -0.018 | [3] 0.042 | [4] -0.004 | [5] 0.019

OXNAD1 (UniProt Q96HP4)
inactive: [1] 0.092 | [2] -0.031 | [3] 0.006 | [4] 0.002 | [5] -0.066

NUDT12 (UniProt Q9BQG2)
inactive: [1] -0.015 | [2] -0.012 | [3] 0.109 | [4] -0.019 | [5] -0.015
